Assay results as given in PubChem BioAssay AID588590 (National Center for Advancing Translational Sciences (NCATS), 2011).
About 4,000 (1%) of roughly 390,000 compounds were called active. The shares of active, inactive and inconclusive entries below differ from those in the screen. Calls follow the shape of the dose curve; as a rule, active = well fitted inhibition curve with a large enough effect; inconclusive = small, poorly fitted or top-dose-only effect, or another doubt; inactive = no such curve, though single readings can be large or run the other way. Potencies of inconclusive entries are doubtful fits and often do not repeat.

The chains behind the UniProt entries cited, without tags or fusion partners. Where a name states a change or a piece, a line headed by the entry shows the natural chain unless it says otherwise.
UniProt Q9UNA4: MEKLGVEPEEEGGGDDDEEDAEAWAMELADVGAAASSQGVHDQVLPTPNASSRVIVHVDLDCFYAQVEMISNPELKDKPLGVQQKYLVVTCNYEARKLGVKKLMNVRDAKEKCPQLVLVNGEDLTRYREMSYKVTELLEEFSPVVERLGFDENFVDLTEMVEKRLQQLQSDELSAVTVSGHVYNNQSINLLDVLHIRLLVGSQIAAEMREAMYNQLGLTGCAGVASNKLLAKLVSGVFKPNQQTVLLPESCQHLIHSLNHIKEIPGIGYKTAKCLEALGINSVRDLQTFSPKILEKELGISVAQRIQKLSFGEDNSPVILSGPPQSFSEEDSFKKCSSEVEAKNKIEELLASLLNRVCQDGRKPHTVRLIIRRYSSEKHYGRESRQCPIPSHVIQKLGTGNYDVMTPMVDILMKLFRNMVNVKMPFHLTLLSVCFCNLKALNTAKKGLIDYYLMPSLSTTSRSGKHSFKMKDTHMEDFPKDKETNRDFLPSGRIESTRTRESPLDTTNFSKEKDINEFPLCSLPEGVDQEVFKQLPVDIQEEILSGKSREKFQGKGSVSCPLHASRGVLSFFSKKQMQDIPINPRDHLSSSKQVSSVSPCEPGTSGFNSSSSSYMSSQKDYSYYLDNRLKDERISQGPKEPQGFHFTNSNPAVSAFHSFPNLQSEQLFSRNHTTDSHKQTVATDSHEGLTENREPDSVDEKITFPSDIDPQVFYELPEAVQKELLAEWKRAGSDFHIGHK

Biological target: DNA polymerase iota (Homo sapiens) (UniProt Q9UNA4)
Assay: qHTS for Inhibitors of Polymerase Iota
Conditions: Pol iota fluorescent replication assay, 10 min; series mostly up to 115 µM; activity, negative = inhibition: at the top concentration
Outline: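 Fluorescent replication assay read twice, at 0 min and 10 min after adding 50 nM (final) substrate. Enzyme (10 nM) and compounds were first incubated 15 min at room temperature; enzyme-free buffer wells were negative controls.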
Potency is read from the fitted curve at half-maximal effect.

SMILES	Potency	activity, negative = inhibition
CCOC(=O)c1[nH]c(C)c(C(=O)OCC)c1C	inconclusive: 39.8 µM [inhibitor, single point]	
Cn1c(SCC(=O)NC2CC2)nnc1C1CC1		inactive: 9.49%
COc1ccccc1OC(=O)Nc1ccc(Cl)cc1		inactive: -8.37%
COc1cc(/C=N/N2C(=O)CSC2=S)ccc1O	active: 12.6 µM	
COc1ccccc1Nc1nn2c(=O)c3ccc(C(=O)N4CCC(C)CC4)cc3nc2s1	inconclusive: 10 µM [inhibitor, full curve, poor fit]	
COc1cc(NC(=O)c2c(-c3ccc(C)cc3)nnc3ccccc23)cc(OC)c1OC	inconclusive: 89.1 µM [inhibitor, single point]	
COc1cccc(S(=O)(=O)c2nc(C)c3c(n2)CCC3)c1	inconclusive: 50.1 µM [inhibitor, partial curve]	
Cc1ccc(NC(=O)c2cc(C)nn2-c2ccccc2)cc1	inconclusive: 126 µM [inhibitor, partial curve, poor fit]	
CSc1nc2nc(-c3ccccc3)cc(=O)n2[nH]1	inconclusive: 0.794 µM [inhibitor, partial curve, poor fit]	
CC(=O)c1cccc(NC2c3ncccc3C(=O)N2Cc2ccco2)c1 (stereo unspecified)	inconclusive: 20 µM [inhibitor, single point]	
Cc1[nH]c(=O)c(C(=O)/C=C/c2ccccc2)c2c1CCCC2	inconclusive: 15.8 µM [inhibitor, full curve]	
CCN(CC)c1ccc(N=Cc2cc(Br)ccc2O)cc1	inconclusive: 20 µM [inhibitor, partial curve, poor fit]	
CCCc1[nH]nc2c1C(Cc1ccccc1)C(C#N)=C(N)O2 (stereo unspecified)	inconclusive: 39.8 µM [inhibitor, single point]	
Cc1noc(C)c1S(=O)(=O)Nc1ccc(C(=O)Nc2ccc(Br)cc2)cc1	inconclusive: 35.5 µM [inhibitor, partial curve, poor fit]	
COc1ccccc1CNC(=O)C1CC2Cn3c(nc4cc(C)c(C)cc43)C2N1C (stereo unspecified)	inconclusive: 2 µM [inhibitor, full curve, poor fit]	
Cc1nc(CSc2ccc(Cl)cc2)cc(NCc2ccccc2)n1	inconclusive: 70.8 µM [inhibitor, single point]	
O=C(NCc1ccccn1)c1cccn1-c1ncc(C(F)(F)F)cc1Cl	inconclusive: 3.55 µM [inhibitor, single point]	
O=C(c1ccco1)N1C(=O)c2cccc3cccc1c23	inconclusive: 14.1 µM [inhibitor, partial curve]	
COC(=O)c1cc(OC)c(OC)cc1NC(=S)Nc1cccc(Cl)c1	inconclusive: 39.8 µM [inhibitor, single point]	
CC(=O)c1c(C)[nH]c(C(=O)OCc2nnc(-c3ccc([N+](=O)[O-])cc3)o2)c1C	inconclusive: 28.2 µM [inhibitor, full curve]	
COCCNC(=O)c1cc2sc3ccccc3c2s1		inactive: 14.4%

SMILES	Potency	activity, negative = inhibition
CCCNC(=O)C1CC(c2ccccc2C(F)(F)F)=NO1 (stereo unspecified)	inconclusive: 28.2 µM [inhibitor, single point]	
Cc1ccc(C2NC(=O)c3c(sc4c3CCN(C)C4)N2)o1 (stereo unspecified)	inconclusive: 70.8 µM [inhibitor, partial curve, poor fit]	
Cc1ccc(C(=O)OCC(=O)NC2CCCc3ccccc32)o1 (stereo unspecified)		inactive: 6.92%
COC(=O)c1c[nH]n2c(=O)cc(CCl)nc12	inconclusive: 112 µM [inhibitor, partial curve, poor fit]	
CCOC(=O)c1cccc(NC(=O)Cn2c(=O)nc(-c3ccccc3F)c3cc(Cl)ccc32)c1	inconclusive: 89.1 µM [inhibitor, partial curve, poor fit]	
Cn1c(=O)oc2cc(S(=O)(=O)NCCC(=O)Nc3ccc4c(c3)OCCO4)ccc21	inconclusive: 79.4 µM [inhibitor, partial curve]	
COC(=O)c1cc(NS(=O)(=O)c2ccc(C(C)C)cc2)ccc1N1CCOCC1	inconclusive: 3.16 µM [inhibitor, partial curve, poor fit]	
CCOC(=O)c1cc(-c2ccccc2)n(CCC(=O)NC2CCCCC2)c1C	inconclusive: 89.1 µM [inhibitor, single point]	
CC1CCCCC1NC(=O)CCc1nc2sc3c(c2c(=O)[nH]1)CCCC3 (stereo unspecified)	inconclusive: 22.4 µM [inhibitor, full curve, poor fit]	
CCN(C(=O)CSc1nc2ccccc2n1CC(=O)NCc1ccc(OC)cc1)c1ccccc1	inconclusive: 79.4 µM [inhibitor, partial curve, poor fit]	
O=C(NNc1ccc(Cl)nn1)c1ccc(Cl)cc1	inconclusive: 89.1 µM [inhibitor, single point]	
COc1ccc(S(=O)(=O)N2CCOCC2)cc1NC(=O)COC(=O)c1oc2ccccc2c1C	inconclusive: 7.94 µM [inhibitor, partial curve, poor fit]	
CC(C)CC(C(=O)NC1CCCC1)N(Cc1cccs1)C(=O)c1snc(C(N)=O)c1N (stereo unspecified)	inconclusive: 25.1 µM [inhibitor, partial curve, poor fit]	
O=C(Nc1nnc(S(=O)(=O)N2CCN(c3ccc(F)cc3)CC2)s1)c1ccccc1	inconclusive: 50.1 µM [inhibitor, partial curve, poor fit]	
CNC(=O)C1CCC(Cn2c(=O)c3sccc3n(CC(=O)NCc3cccc(OC)c3)c2=O)CC1 (stereo unspecified)		inactive: 2.91%
Cc1ccc(Nc2nnc(-c3cc4c(ccc5ccccc54)oc3=O)s2)cc1	inconclusive: 89.1 µM [inhibitor, partial curve, poor fit]	
CC12CCC(C/C1=N\N=C1\NC(=O)/C(=C\c3ccc(Cl)cc3)S1)C2(C)C (stereo unspecified)		inactive: 3.7%
COc1ccc(CCNC(=O)CCc2c(C)nc3cc(-c4ccccc4OC)nn3c2C)c(OC)c1		inactive: 11.9%
CCCCCCCC/C=C\CCCCCCCC(=O)NCCO	inconclusive: 15.8 µM [inhibitor, partial curve, poor fit]	
COc1ccc(/C=C\c2onc(C)c2S(=O)(=O)N2CCC(C(=O)Nc3cccc(Cl)c3)CC2)cc1		inactive: 13.7%

In the list so far, these contain a CF3 group.
SMILES	Potency	activity, negative = inhibition
O=C(NCc1ccccn1)c1cccn1-c1ncc(C(F)(F)F)cc1Cl	inconclusive: 3.55 µM [inhibitor, single point]	
CCCNC(=O)C1CC(c2ccccc2C(F)(F)F)=NO1 (stereo unspecified)	inconclusive: 28.2 µM [inhibitor, single point]	
